Assay: general procedure: solution-phase peptide synthesis; HATU/DIPEA
Settings: late stage modification step

Row | Substance | step yield [% yield]
1 | (S)-11-benzyl-1-(9H-fluoren-9-yl)-20,20-dimethyl-3,6,9,12,15-pentaoxo-2,18-dioxa-4,7,10,13,16-pentaazahenicosan-21-oic acid | 84.8
2 | Benzyl(S)-11-benzyl-1-(9H-fluoren-9-yl)-20,20-dimethyl-3,6,9,12,15-pentaoxo-2,18-dioxa-4,7,10,13,16-pentaazahenicosan-21-oate | 29.2

Source: patent publication US20250312473A1 (BEONE MEDICINES I GMBH, priority 2022, published 2025)
